Consider 28 compounds from PubChem BioAssay AID330 (DTP/NCI, 2004).

The list does not hold the whole screen: it is rich in T/C values a quarter to a half above the control, in often repeated tests (any T/C) and in doses without a T/C. Other doses and runs of a compound stand elsewhere. T/C: endpoint of the treated group in % of that of the vehicle group. Some entries give survivors of the animals treated and no T/C: the source holds a T/C of zero for them, seemingly a mark for toxic or unscored doses. Some survivor counts are full or nearly so, which does not show that the dose was tolerated: survival well below the control is almost never listed, so the zero probably covers shortened survival too. Counts of survivors are from the toxicity check (mostly the fifth day) where no day follows; animals may have died later. Schedule codes are those of the source, taken here to give the interval after Q, in days (D) or hours (H), and the number of doses after X. Counts like (3×) stand for listed records that agree. Some entries were tested several times; the results are listed from low to high. Where survival is the endpoint, the PubChem record calls one and a half times the control and up active, and a quarter to a half above the control has no call in these data; cut-offs in other NCI protocols can differ.

This test has as its system P388 leukemia ip, CD2F1 mice, survival T/C. The test can be described thus: NCI In Vivo Anticancer Drug Screen. Data for tumor model P388 Leukemia (intraperitoneal) in CD2F1 (CDF1) mice. To be noted: T/C endpoint: median survival time, higher T/C = longer survival.
The mark [1] stands for this setting: dose: 400.0 mg/kg/injection, schedule: Q04DX003 (ip), vehicle: saline with Tween-80.
Where [2] appears, read: dose: 50.0 mg/kg/injection, schedule: Q01DX009 (ip), vehicle: Klucel (hydroxypropylcellulose) (HPC).
Where [3] appears, read: dose: 100.0 mg/kg/injection, schedule: Q01DX009 (ip), vehicle: Klucel (hydroxypropylcellulose) (HPC).
Where [4] appears, read: dose: 200.0 mg/kg/injection, schedule: Q01DX009 (ip), vehicle: Klucel (hydroxypropylcellulose) (HPC).
Where [5] appears, read: dose: 100.0 mg/kg/injection, schedule: Q01DX009 (ip), vehicle: saline.
The mark [6] stands for this setting: dose: 200.0 mg/kg/injection, schedule: Q01DX005 (ip), vehicle: saline with Tween-80.
Setting [7] is: dose: 50.0 mg/kg/injection, schedule: Q01DX009 (ip), vehicle: saline.
Setting [8] is: dose: 200.0 mg/kg/injection, schedule: Q01DX009 (ip), vehicle: saline.
Setting [9] is: dose: 25.0 mg/kg/injection, schedule: Q01DX009 (ip), vehicle: saline with Tween-80.
[10] abbreviates: dose: 12.5 mg/kg/injection, schedule: Q01DX009 (ip), vehicle: saline with Tween-80.
Setting [11] is: dose: 50.0 mg/kg/injection, schedule: Q01DX009 (ip), vehicle: saline with Tween-80.
The mark [12] stands for this setting: dose: 100.0 mg/kg/injection, schedule: Q01DX009 (ip), vehicle: saline with Tween-80.
[13] abbreviates: dose: 200.0 mg/kg/injection, schedule: Q01DX009 (ip), vehicle: saline with Tween-80.

On to `CCC(C)C1NC(=O)C2C(CCN2C(=O)C(Cc2c[nH]c3ccccc23)NC(=O)C(CC(C)C)N(C)C)Oc2ccc(cc2)/C=C\NC1=O` (centres undefined), for which the survivor count under setting [1] is given as 3 of 6.

For the compound `O=C(O)CCCCCCCCCCNC(=O)CI`, the survivor count reads like this: under setting [2], 1 of 6; under setting [3], 1 of 6; under setting [4], 0 of 6.

For the compound `C1=CCC23CCCCC2(C1)CN(/N=N/N1CC24CC=CCC2(CCCC4)C1)C3` (centres undefined), the survivor count (dose: 25.0 mg/kg/injection, schedule: Q01DX009 (ip), vehicle: Klucel (hydroxypropylcellulose) (HPC)) is listed as 6 of 6.

As for `NNC(N)=NC1CCCCC1`, the survivor count (dose: 200.0 mg/kg/injection, schedule: Q01DX005 (ip), vehicle: Klucel (hydroxypropylcellulose) (HPC)) is on record as 0 of 5.

For `CCOC(=O)C1=C(C(C)=O)C(c2ccc(OC)c(OC)c2)C(C(C)=O)=C(C(=O)OCC)N1`, the survivor count (dose: 240.0 mg/kg/injection, schedule: Q01DX005 (ip), vehicle: saline) is 0 of 6.

For `O=P1(NNc2ncccn2)SC(NN=C2CCCCC2)=NC12CCCCC2` (centres undefined), the survivor count reads like this: (dose: 120.0 mg/kg/injection, schedule: Q01DX005 (ip), vehicle: Klucel (hydroxypropylcellulose) (HPC)) 0 of 6; (dose: 240.0 mg/kg/injection, schedule: Q01DX005 (ip), vehicle: Klucel (hydroxypropylcellulose) (HPC)) 0 of 6.

On to `CC(C)Sc1ncnc2nc[nH]c12`, for which the survivor count under setting [1] is 3 of 6.

For the compound `O=S(=O)(c1ccc(N=Cc2cccs2)cc1)c1ccc(N=Cc2cccs2)cc1`, the survivor count under setting [5] is on record as 6 of 6.

Consider `CC1(C)CC(=O)[C@H]2SCC(=O)CC21` (some centres undefined), for which the survivor count under setting [6] is 0 of 6.

For the compound `CSc1cc(=O)n2c3ccccc3c3ccnc1c32`, the T/C was 141 % of control (dose: 5.0 mg/kg/injection, schedule: Q01DX009 (ip), vehicle: saline with Tween-80) and 144 % of control (dose: 10.0 mg/kg/injection, schedule: Q01DX009 (ip), vehicle: saline with Tween-80).

Take `CCOC(=O)Oc1ccc(CC([NH-])C(=O)O)cc1.CCOC(=O)Oc1ccc(CC([NH-])C(=O)O)cc1.[Cu+2]` (centres undefined): the survivor count under setting [7] was 5 of 6, the survivor count under setting [5] is given as 1 of 6 and the survivor count under setting [8] is given as 1 of 6.

For the compound `COc1nncc(-c2cnnc(OC)n2)n1`, the survivor count under setting [9] was 5 of 6.

As for `CC(=O)OCC1OC(OC2=C(CC=C(C)C)C(=O)c3ccccc3C2=O)C(OC(C)=O)C(OC(C)=O)C1OC(C)=O` (centres undefined), the T/C under setting [2] was 126 and 132 % of control; the T/C under setting [3] is 125 % of control. The survivor count is 3 of 6 under setting [3]; 5 of 6 and 6 of 6 under setting [4].

Regarding `NC(Cc1ccccc1[N+](=O)[O-])C(=O)O` (centres undefined), the survivor count (dose: 400.0 mg/kg/injection, schedule: Q01DX009 (ip), vehicle: saline with Tween-80) was 5 of 6.

Take `COC1C(OC(=O)/C=C/C=C/C=C/C=C/C(=O)O)CCC2(CO2)C1C1(C)OC1CC=C(C)C` (centres undefined): the T/C runs as follows: (dose: 33.0 mg/kg/injection, schedule: Q01DX009 (ip), vehicle: saline) 125 % of control; under setting [7], 127 % of control; (dose: 75.0 mg/kg/injection, schedule: Q01DX009 (ip), vehicle: saline) 136 % of control; (dose: 266.0 mg/kg/injection, schedule: Q04DX003 (ip), vehicle: saline) 140 % of control. Besides, the survivor count was 4 of 6 (dose: 400.0 mg/kg/injection, schedule: Q04DX003 (ip), vehicle: saline) and 1 of 6 (dose: 600.0 mg/kg/injection, schedule: Q04DX003 (ip), vehicle: saline).

In the case of `O=C(Nc1cccc2ccccc12)N1c2ccccc2SC12CCCC2`, the survivor count is 6 of 6 under setting [10] and 6 of 6 under setting [9].

Turning to `[CH3][Sn]1([CH3])[O]c2ccccc2C=NCCN=Cc2ccccc2[O]1`, the T/C reads like this: under setting [7], 127 and 129 % of control; under setting [5], 126 and 143 % of control. Also, the survivor count under setting [8] was 2 of 6.

As to `Cc1cc(OP2(=O)Nc3ccccc3-c3ccccc3N2)ccc1Cl`, the survivor count under setting [6] is listed as 6 of 6.

For the compound `O=CC(=O)c1cccc([N+](=O)[O-])c1`, the T/C runs as follows: under setting [9], 127 % of control; under setting [11], 126 and 130 % of control; under setting [12], 126 and 130 % of control. Besides, under setting [13], the survivor count was 5 of 6.

In the case of `CC(C)(C[NH-])C[NH-].[Cl][Pt+2][Cl]`, the T/C is 118 and 153 % of control (dose: 0.25 mg/kg/injection, schedule: Q04DX003 (ip), vehicle: water, evaluated on day 30); 142 % of control (dose: 0.25 mg/kg/injection, schedule: Q04DX003 (ip), vehicle: water, evaluated on day 45); 152 % of control (dose: 0.25 mg/kg/injection, schedule: Q04DX003 (ip), vehicle: water, evaluated on day 55); 134 and 151 % of control (dose: 0.5 mg/kg/injection, schedule: Q04DX003 (ip), vehicle: water, evaluated on day 30); 166 % of control (dose: 0.5 mg/kg/injection, schedule: Q04DX003 (ip), vehicle: water, evaluated on day 45); 161 % of control (dose: 0.5 mg/kg/injection, schedule: Q04DX003 (ip), vehicle: water, evaluated on day 55). The T/C by setting is: (dose: 1.0 mg/kg/injection, schedule: Q04DX003 (ip), vehicle: water, evaluated on day 30) 164 and 175 % of control; (dose: 1.0 mg/kg/injection, schedule: Q04DX003 (ip), vehicle: water, evaluated on day 45) 196 % of control; (dose: 1.0 mg/kg/injection, schedule: Q04DX003 (ip), vehicle: water, evaluated on day 55) 164 % of control; (dose: 2.0 mg/kg/injection, schedule: Q04DX003 (ip), vehicle: water, evaluated on day 30) 166 and 200 % of control; (dose: 2.0 mg/kg/injection, schedule: Q04DX003 (ip), vehicle: water, evaluated on day 45) 245 % of control; (dose: 2.0 mg/kg/injection, schedule: Q04DX003 (ip), vehicle: water, evaluated on day 55) 183 % of control. For the same compound, the T/C was 216 % of control (dose: 4.0 mg/kg/injection, schedule: Q04DX003 (ip), vehicle: water, evaluated on day 30) and 200 % of control (dose: 4.0 mg/kg/injection, schedule: Q04DX003 (ip), vehicle: water, evaluated on day 55). Moreover, the survivor count (dose: 4.0 mg/kg/injection, schedule: Q04DX003 (ip), vehicle: water) is 6 of 6 (2×).

For the compound `O=S(=O)(CCl)OCCF`, the survivor count is, setting by setting: under setting [10], 0 of 6; under setting [9], 0 of 6; under setting [11], 0 of 6; under setting [12], 0 of 6; under setting [13], 0 of 6.

`O=[N+]([O-])C1=NOCC1`: the survivor count (dose: 200.0 mg/kg/injection, schedule: Q01DX005 (ip), vehicle: suspension in saline) is 0 of 6.

`Cc1cc(N(c2ccc([N+](=O)[O-])cc2)S(C)(=O)=O)c(C)cc1C=O`: the survivor count under setting [13] is on record as 6 of 6.

With `O=C(O)c1cc2ccc(Cl)cc2[se]1`, the survivor count under setting [5] is recorded as 6 of 6.

Take `CCCCC[P+](c1ccccc1)(c1ccccc1)c1ccccc1`: the T/C by setting is: (dose: 6.25 mg/kg/injection, schedule: Q01DX009 (ip), vehicle: Klucel (hydroxypropylcellulose) (HPC)) 127 % of control; (dose: 12.5 mg/kg/injection, schedule: Q01DX009 (ip), vehicle: Klucel (hydroxypropylcellulose) (HPC)) 129 % of control.

Consider `CCOC(=O)c1ccc(NC(=O)Nc2n[nH]c(NC(=O)Nc3ccc(C(=O)OCC)cc3)n2)cc1`, for which the survivor count runs as follows: (dose: 200.0 mg/kg/injection, schedule: Q01DX009 (ip), vehicle: distilled water + Tween-80) 5 of 6; (dose: 400.0 mg/kg/injection, schedule: Q01DX009 (ip), vehicle: distilled water + Tween-80) 0 of 6.

On to `CB1NN=C(C)c2ccsc21`, for which the survivor count under setting [12] is recorded as 6 of 6 and the survivor count under setting [13] is listed as 3 of 6.

Consider `CSC(SC)=C(C#N)C#N`, for which, for the setting “dose: 200.0 mg/kg/injection, schedule: Q04DX003 (ip), vehicle: saline”, the survivor count was 3 of 6.
